The source of these data is paper PMC7979726 (Nature Communications, 2021).

Sequences of proteins named here, by UniProt entry; tags and fusion partners are left off. A change or cut given only in a name is not applied to a line headed by its entry.
UniProt P54784: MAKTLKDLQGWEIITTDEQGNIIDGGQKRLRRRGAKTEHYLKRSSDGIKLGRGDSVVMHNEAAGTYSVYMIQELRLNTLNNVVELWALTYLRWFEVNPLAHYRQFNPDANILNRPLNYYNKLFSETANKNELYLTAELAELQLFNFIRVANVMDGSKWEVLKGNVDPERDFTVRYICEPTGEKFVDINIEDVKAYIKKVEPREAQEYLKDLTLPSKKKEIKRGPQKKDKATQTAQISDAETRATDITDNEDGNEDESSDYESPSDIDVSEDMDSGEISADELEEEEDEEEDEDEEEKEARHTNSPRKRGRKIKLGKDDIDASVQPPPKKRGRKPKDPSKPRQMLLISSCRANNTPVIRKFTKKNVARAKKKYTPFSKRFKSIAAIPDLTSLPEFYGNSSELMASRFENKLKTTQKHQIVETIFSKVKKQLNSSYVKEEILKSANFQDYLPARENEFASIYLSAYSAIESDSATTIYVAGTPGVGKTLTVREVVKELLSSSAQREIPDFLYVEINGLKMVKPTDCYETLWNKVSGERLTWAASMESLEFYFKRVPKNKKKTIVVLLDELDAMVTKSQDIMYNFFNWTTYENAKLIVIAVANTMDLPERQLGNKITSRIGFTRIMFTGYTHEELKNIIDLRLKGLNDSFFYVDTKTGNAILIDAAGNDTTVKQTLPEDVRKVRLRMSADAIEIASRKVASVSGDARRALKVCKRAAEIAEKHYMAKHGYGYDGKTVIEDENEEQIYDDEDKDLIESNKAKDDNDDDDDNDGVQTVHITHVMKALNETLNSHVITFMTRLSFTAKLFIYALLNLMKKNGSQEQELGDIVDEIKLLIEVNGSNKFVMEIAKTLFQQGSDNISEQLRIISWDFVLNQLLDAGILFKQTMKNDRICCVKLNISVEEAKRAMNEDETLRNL
UniProt P53091: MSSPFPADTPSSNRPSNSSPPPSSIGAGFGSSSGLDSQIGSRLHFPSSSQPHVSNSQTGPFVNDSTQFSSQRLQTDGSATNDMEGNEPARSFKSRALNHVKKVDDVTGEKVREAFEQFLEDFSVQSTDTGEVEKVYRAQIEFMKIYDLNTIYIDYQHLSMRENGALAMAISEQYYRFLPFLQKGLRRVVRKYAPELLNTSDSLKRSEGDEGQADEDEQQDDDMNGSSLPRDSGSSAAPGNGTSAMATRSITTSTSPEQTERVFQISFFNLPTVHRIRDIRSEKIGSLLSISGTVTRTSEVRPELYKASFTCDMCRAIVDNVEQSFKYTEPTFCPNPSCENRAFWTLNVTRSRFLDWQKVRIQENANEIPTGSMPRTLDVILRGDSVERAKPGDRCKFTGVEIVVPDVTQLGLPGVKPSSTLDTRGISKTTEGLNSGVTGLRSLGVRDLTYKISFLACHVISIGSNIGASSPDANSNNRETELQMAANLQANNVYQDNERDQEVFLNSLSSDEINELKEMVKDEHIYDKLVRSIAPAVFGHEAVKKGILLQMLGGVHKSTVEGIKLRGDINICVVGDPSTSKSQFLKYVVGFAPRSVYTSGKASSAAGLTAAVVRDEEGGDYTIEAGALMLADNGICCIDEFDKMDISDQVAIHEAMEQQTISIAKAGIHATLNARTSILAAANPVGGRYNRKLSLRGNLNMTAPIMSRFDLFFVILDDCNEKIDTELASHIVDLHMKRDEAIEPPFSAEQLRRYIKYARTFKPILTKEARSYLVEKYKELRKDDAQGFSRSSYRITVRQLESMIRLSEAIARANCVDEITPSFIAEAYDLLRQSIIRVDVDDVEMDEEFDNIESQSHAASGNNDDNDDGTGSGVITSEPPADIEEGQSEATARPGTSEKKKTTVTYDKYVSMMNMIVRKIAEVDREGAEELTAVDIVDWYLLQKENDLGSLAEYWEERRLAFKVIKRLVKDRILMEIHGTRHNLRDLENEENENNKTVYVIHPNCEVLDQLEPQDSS

This test has as its target ORC-Cdc6 complex bound to duplex DNA (OC) (S. cerevisiae) (UniProt P54784). Description: pull-down; preRC recruitment assay: OC (50 nM ORC, 50 nM Cdc6) formed on ARS305 DNA on streptavidin magnetic beads; one Mcm subunit or Cdt1 at 250 nM with or without Mcm3; ATPγS, 30 °C, 20 min, low salt washes (300 mM KOAc); SDS-PAGE; both purified.

These are yes or no findings as the source states them, for the method shown.

In the case of Mcm6 (from UniProt P53091 1-1017), the binding entry is given as “no binding (tested: 250 nM)”.
